## Library screen at single concentrations

The chains behind the UniProt entries cited, without tags or fusion partners.
UniProt P9WPC5, whole entry: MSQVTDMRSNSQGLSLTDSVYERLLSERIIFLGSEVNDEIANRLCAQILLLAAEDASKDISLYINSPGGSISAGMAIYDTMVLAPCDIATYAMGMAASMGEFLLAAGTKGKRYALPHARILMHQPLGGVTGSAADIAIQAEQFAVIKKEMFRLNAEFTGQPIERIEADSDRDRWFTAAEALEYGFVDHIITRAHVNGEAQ
UniProt P9WPC3, whole entry partner: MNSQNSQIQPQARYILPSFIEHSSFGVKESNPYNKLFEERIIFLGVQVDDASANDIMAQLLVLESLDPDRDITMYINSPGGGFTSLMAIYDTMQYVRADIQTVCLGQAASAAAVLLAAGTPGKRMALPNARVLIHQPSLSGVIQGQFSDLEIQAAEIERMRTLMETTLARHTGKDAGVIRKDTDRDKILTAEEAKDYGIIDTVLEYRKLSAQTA
UniProt P9WFT3, whole entry: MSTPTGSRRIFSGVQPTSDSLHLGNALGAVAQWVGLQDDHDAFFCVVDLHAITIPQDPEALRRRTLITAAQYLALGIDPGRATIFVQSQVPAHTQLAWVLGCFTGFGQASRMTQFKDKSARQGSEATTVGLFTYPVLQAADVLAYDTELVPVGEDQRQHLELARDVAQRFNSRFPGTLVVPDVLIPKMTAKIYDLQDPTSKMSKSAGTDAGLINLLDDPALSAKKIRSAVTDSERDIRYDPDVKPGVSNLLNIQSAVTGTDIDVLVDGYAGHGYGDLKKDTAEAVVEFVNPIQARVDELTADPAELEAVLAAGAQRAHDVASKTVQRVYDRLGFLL
UniProt P9WNZ1, whole entry: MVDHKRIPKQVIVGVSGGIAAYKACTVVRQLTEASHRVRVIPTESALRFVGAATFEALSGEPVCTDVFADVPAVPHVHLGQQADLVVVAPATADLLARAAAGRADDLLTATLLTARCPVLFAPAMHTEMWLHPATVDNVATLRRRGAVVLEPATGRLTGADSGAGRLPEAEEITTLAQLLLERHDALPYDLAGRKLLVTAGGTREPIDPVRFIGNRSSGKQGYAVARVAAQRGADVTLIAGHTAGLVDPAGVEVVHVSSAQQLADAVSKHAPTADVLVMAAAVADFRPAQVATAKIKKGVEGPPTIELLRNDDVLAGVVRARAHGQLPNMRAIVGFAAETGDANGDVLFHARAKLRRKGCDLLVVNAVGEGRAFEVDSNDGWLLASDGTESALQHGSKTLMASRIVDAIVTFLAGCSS

The values are deposited in ChEMBL (CHEMBL3988442, “University of Dundee, Small-Polar-MMV Screening Library” (2021)).

ClpP1P2: 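ClpP1P2, Mycobacterium tuberculosis (UniProt P9WPC5 and UniProt P9WPC3). Protease assay of ClpP1P2, read by the AMC dye that it sets free. Concentration: 50 µM. Higher reads as stronger inhibition, judged from the few compounds that gave an IC50. Most other retested compounds had strongly negative values. Size under these conditions: about 69,000 compounds, about 10 of them at 50% or above in at least one test.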
Toxoplasma: 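Assay of Toxoplasma gondii numbers, read through their beta-galactosidase reporter with a colour substrate. Concentration: 10 µM. The record gives no direction; the compounds picked for IC50 retests had high values, so higher reads as fewer parasites. Of about 67,000 compounds tested this way, about 260 (0.38%) reached 50% or more in at least one test.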
MtTrpRS: 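Enzyme assay of tryptophanyl-tRNA synthetase; the read-out is not stated. Target: Tryptophan-tRNA ligase, Mycobacterium tuberculosis (UniProt P9WFT3). Tested at 10 µM. Higher most likely means stronger inhibition; the record gives no direction and few retests gave an IC50. About 65,000 compounds were tested under these conditions; 0.098% (about 64) showed 50% or more at least once.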
CoaBC: 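Coenzyme A biosynthesis protein CoaBC, Mycobacterium tuberculosis (UniProt P9WNZ1). Enzyme assay of CoaBC with a phosphate dye (Biomol Green) read at 650 nm. Tested at 30 µM. Higher reads as stronger inhibition, judged from the few compounds that gave an IC50. Most strong results did not repeat in a second test. Of about 67,000 compounds tested this way, about 40 (0.06%) reached 50% or more in at least one test.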

Values are the deposited “Percent Effect”, in %.
The record does not define 0% and 100%; most values in the screen are far below 50% and negative numbers occur (in some assays of this library far below -100).
Compounds were drawn at random from those tested, without regard to their results.

{"compound": "N#Cc1cccc(NC2CC(=O)N(C3Cc4ccccc4C3)C2)n1", "stereo": "stereo not shown", "ClpP1P2": 12.47, "Toxoplasma": -14.69, "MtTrpRS": 1.459, "CoaBC": 1.489}
{"compound": "Cc1n[nH]c(C)c1CCC(=O)N(C)Cc1cn[nH]c1-c1ccc(F)cc1", "ClpP1P2": -3.839, "Toxoplasma": 5.487, "MtTrpRS": -4.27, "CoaBC": -1.978}
{"compound": "O=C(Nc1cccnc1)C1=NN(c2ccccc2)C(=O)CN1", "ClpP1P2": 2.729, "Toxoplasma": 14.88, "MtTrpRS": 4.241, "CoaBC": 0}
{"compound": "CN(Cc1ncc[nH]1)C(=O)C(C)(C)NC(=O)c1cccs1", "ClpP1P2": -0.3991, "Toxoplasma": 11.04, "MtTrpRS": -0.3268, "CoaBC": 0}
{"compound": "CCn1cc2c(n1)CN(C(=O)c1ccncc1)CC2COCC1CC1.O=C(O)C(F)(F)F", "stereo": "stereo not shown", "Toxoplasma": 0.9615}
{"compound": "Cc1ccc(C(=O)NCC2CCN(C)c3ccccc32)c(=O)[nH]1", "stereo": "stereo not shown", "ClpP1P2": 10.05, "Toxoplasma": 10.13, "MtTrpRS": -5.31, "CoaBC": 6.638}
{"compound": "COc1ccc(C(=O)N2CCO[C@H]3[C@@H](OCC4CC4)CC[C@@H]32)cc1F", "ClpP1P2": 7.227, "MtTrpRS": -0.7551}
{"compound": "Fc1cccc(-c2nnn3c2COC(CNCc2nccs2)C3)c1.O=C(O)C(F)(F)F", "stereo": "stereo not shown", "Toxoplasma": 19.26}
{"compound": "Cc1nc(C(C)C)sc1C(C)N(C)C(=O)c1ccc(=O)n(C)n1", "stereo": "stereo not shown", "ClpP1P2": -5.211, "Toxoplasma": 6.081, "MtTrpRS": 1.125, "CoaBC": -3.185}
{"compound": "Cc1ccn(-c2ccccc2NCc2cscn2)n1", "ClpP1P2": -13.06, "Toxoplasma": -2.402, "MtTrpRS": 10.67, "CoaBC": 7.372}
{"compound": "CCS(=O)(=O)N1CCCC(c2nccn2Cc2ccccn2)C1", "stereo": "stereo not shown", "ClpP1P2": 2.716, "Toxoplasma": 0.6509, "MtTrpRS": -3.772, "CoaBC": 7.025}
{"compound": "COCCOCC(=O)N1CCC2(CCCN(C3CCOCC3)C2=O)C1", "stereo": "stereo not shown", "ClpP1P2": 25.35, "Toxoplasma": 18.91, "MtTrpRS": -2.297, "CoaBC": 9.532}
{"compound": "O=C(c1cc(F)ccc1F)C1CCN(C(=O)c2ccc(=O)[nH]n2)CC1", "ClpP1P2": 9.195, "Toxoplasma": -2.894, "MtTrpRS": -2.737, "CoaBC": 6.154}
{"compound": "CCc1nc(CN2CCCCC2C(N)=O)cs1", "stereo": "stereo not shown", "ClpP1P2": 0.9265, "Toxoplasma": 11.21, "MtTrpRS": 0.4182, "CoaBC": 1.648}
{"compound": "COCCN1CCN(CCCS(C)(=O)=O)CC1C", "stereo": "stereo not shown", "ClpP1P2": 4.301, "Toxoplasma": 3.877, "MtTrpRS": 0.6803, "CoaBC": 9.781}
{"compound": "CN(Cc1ccc(F)cc1)CC1(O)CCN(C(=O)c2cccn2C)C1", "stereo": "stereo not shown", "ClpP1P2": 6.826, "Toxoplasma": -4.603, "MtTrpRS": -2.467, "CoaBC": 0.2591}
{"compound": "Cn1cccc1C(=O)N1CCC2(CC1)CN(c1ccsc1)C(=O)CO2", "ClpP1P2": -5.551, "Toxoplasma": -36.55, "MtTrpRS": 0, "CoaBC": -2}
{"compound": "NCc1n[nH]c(-c2ccc(Br)cc2)n1", "ClpP1P2": 20.55, "Toxoplasma": 5.209, "MtTrpRS": -2.917, "CoaBC": 0.1122}
{"compound": "CCN(C)c1ncnc2c1CCN(Cc1ccncc1)CC2", "ClpP1P2": -2.908, "MtTrpRS": 1.424, "CoaBC": 1.062}
{"compound": "Cc1ccsc1CN1CCC(c2cc(C(C)C)n[nH]2)CC1", "ClpP1P2": 8.159, "Toxoplasma": -15.98, "MtTrpRS": 0.6988, "CoaBC": 5.934}
{"compound": "Cc1ncc(CN(C)C(=O)c2ccc(N3CCOCC3)c(F)c2)s1", "ClpP1P2": -6.892, "Toxoplasma": 10.47, "MtTrpRS": -8.414, "CoaBC": 3.306}
{"compound": "COc1cc(Oc2ccc(C#N)cn2)ccc1CN1CCCC1", "ClpP1P2": -3.55, "Toxoplasma": 19.38, "MtTrpRS": 0.4881, "CoaBC": 0.8373}
{"compound": "O=C(O)C(F)(F)F.[H][C@]12CC(=O)N(CC3CC3)[C@@]1([H])CCN2Cc1cccc(C)n1", "Toxoplasma": -1.886}
{"compound": "CCS(=O)(=O)c1ncc(CN(C)Cc2ccccn2)n1CCOC", "ClpP1P2": -12.06, "Toxoplasma": -5.821, "MtTrpRS": 4.595, "CoaBC": 1.316}
{"compound": "c1cnnc(N2CCCC2CNc2cnc3ccccc3n2)c1", "stereo": "stereo not shown", "ClpP1P2": -11.96, "Toxoplasma": 14.46, "MtTrpRS": -8.051, "CoaBC": 2.417}
{"compound": "COc1ccc(-c2cc(N)on2)cc1", "ClpP1P2": 9.659, "Toxoplasma": 9.793, "CoaBC": -1.595}
{"compound": "Cc1cc(N2CCC3(CCC(=O)N(CC4CC4)C3)CC2)ncn1", "ClpP1P2": -2.733, "Toxoplasma": -0.1739, "MtTrpRS": 3.606, "CoaBC": 4.292}
{"compound": "Cc1ccc(C(NC(=O)Cn2cc(C3CC3)nn2)C2CC2)cc1", "stereo": "stereo not shown", "ClpP1P2": -20.29, "Toxoplasma": 13.18, "MtTrpRS": -3.926, "CoaBC": 8.12}
{"compound": "N#CCC(=O)NCc1nnc2n1CCN(Cc1ccsc1)C2", "ClpP1P2": -5.353, "Toxoplasma": -2.819, "MtTrpRS": 17.54}
{"compound": "CC(=O)N1Cc2nccn2CC(CNC(=O)c2cnccn2)C1", "stereo": "stereo not shown", "ClpP1P2": 3.046, "Toxoplasma": -3.564, "MtTrpRS": 0.8721}

Once more, the final 3:

Result for Cc1ccc(C(NC(=O)Cn2cc(C3CC3)nn2)C2CC2)cc1 (stereo not shown) was ClpP1P2: -20.29%; Toxoplasma: 13.18%; MtTrpRS: -3.926%; CoaBC: 8.12%.
Result for N#CCC(=O)NCc1nnc2n1CCN(Cc1ccsc1)C2 was ClpP1P2: -5.353%; Toxoplasma: -2.819%; MtTrpRS: 17.54%.
Result for CC(=O)N1Cc2nccn2CC(CNC(=O)c2cnccn2)C1 (stereo not shown) was ClpP1P2: 3.046%; Toxoplasma: -3.564%; MtTrpRS: 0.8721%.